System: H295R cells
Details: 7 days, 0.5 µM astemizole

dxr-IC50 decrease by astemizole (anti-proliferative effect): about three times
Structure (SMILES): COc1ccc(CCN2CCC(Nc3nc4ccccc4n3Cc3ccc(F)cc3)CC2)cc1 [astemizole, Astemizole]
